Like-named read-outs stand apart in the source and are kept apart here. These are yes or no findings as the source states them, for the method shown. In cells and extracts the contact can be indirect. Some entries that bind do so weakly or less than the wild type.
Columns and labels:
[1] = target: GluA2 subunit of AMPA receptors (mouse (endogenous in E16 brain)) (UniProt P23819); experiment: co-IP; 500–700 μg solubilized protein from E16 mouse brains (dams injected daily from E8 with saline or 5 nmol/g GluA2-G-Gpep), anti-GluA2 or control IgG 4 h at 4 °C, protein A/G plus agarose 12 h; Western blot
[2] = target: GluA2 subunit of AMPA receptors (mouse (endogenous in E16 brain)) (UniProt P23819); experiment: as above; remark: listed apart in the source

Protein sequences, listed by entry. Tags and fused reporters are not part of them. Residues count along the entry.
UniProt P23819, residues 25-883: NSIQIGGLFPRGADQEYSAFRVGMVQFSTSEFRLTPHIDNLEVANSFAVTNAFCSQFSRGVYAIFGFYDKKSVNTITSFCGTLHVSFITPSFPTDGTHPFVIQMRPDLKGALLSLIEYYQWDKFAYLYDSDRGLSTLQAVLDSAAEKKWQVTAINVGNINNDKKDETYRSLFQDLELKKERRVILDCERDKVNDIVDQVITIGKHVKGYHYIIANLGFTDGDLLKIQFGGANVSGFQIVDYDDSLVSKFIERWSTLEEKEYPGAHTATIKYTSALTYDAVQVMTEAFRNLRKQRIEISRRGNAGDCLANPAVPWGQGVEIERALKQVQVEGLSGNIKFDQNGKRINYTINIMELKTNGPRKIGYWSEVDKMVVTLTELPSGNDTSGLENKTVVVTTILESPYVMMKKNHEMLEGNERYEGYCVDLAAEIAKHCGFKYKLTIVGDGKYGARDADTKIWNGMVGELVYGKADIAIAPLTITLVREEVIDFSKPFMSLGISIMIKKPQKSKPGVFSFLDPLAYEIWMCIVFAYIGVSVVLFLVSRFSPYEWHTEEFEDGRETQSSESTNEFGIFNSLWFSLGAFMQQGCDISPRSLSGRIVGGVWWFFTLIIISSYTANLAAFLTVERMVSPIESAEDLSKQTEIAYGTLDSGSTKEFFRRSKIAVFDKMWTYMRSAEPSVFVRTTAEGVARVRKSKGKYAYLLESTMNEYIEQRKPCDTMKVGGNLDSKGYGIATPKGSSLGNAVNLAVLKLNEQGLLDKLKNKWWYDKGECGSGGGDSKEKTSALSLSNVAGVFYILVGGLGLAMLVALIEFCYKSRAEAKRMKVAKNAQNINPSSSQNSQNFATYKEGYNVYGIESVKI
UniProt P15116, residues 160-906: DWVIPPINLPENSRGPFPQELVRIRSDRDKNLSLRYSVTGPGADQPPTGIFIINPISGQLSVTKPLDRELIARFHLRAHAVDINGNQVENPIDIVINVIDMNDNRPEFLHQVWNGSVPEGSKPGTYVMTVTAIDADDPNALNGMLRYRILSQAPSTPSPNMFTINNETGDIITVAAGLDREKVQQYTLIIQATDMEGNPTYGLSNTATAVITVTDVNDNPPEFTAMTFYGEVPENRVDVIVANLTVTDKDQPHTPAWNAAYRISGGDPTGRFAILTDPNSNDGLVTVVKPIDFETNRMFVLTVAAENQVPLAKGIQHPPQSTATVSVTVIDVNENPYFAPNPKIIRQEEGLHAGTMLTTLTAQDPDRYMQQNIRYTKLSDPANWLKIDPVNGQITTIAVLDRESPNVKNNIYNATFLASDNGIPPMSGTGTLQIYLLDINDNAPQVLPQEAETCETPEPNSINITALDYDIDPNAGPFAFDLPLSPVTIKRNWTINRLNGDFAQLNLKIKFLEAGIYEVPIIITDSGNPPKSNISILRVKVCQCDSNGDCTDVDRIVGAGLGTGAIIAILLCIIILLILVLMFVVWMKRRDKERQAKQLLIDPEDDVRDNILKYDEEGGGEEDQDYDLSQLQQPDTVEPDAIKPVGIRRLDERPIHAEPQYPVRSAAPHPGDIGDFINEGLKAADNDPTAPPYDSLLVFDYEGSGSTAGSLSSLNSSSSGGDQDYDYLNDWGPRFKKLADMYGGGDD
UniProt Q80UG2, residues 24-1893: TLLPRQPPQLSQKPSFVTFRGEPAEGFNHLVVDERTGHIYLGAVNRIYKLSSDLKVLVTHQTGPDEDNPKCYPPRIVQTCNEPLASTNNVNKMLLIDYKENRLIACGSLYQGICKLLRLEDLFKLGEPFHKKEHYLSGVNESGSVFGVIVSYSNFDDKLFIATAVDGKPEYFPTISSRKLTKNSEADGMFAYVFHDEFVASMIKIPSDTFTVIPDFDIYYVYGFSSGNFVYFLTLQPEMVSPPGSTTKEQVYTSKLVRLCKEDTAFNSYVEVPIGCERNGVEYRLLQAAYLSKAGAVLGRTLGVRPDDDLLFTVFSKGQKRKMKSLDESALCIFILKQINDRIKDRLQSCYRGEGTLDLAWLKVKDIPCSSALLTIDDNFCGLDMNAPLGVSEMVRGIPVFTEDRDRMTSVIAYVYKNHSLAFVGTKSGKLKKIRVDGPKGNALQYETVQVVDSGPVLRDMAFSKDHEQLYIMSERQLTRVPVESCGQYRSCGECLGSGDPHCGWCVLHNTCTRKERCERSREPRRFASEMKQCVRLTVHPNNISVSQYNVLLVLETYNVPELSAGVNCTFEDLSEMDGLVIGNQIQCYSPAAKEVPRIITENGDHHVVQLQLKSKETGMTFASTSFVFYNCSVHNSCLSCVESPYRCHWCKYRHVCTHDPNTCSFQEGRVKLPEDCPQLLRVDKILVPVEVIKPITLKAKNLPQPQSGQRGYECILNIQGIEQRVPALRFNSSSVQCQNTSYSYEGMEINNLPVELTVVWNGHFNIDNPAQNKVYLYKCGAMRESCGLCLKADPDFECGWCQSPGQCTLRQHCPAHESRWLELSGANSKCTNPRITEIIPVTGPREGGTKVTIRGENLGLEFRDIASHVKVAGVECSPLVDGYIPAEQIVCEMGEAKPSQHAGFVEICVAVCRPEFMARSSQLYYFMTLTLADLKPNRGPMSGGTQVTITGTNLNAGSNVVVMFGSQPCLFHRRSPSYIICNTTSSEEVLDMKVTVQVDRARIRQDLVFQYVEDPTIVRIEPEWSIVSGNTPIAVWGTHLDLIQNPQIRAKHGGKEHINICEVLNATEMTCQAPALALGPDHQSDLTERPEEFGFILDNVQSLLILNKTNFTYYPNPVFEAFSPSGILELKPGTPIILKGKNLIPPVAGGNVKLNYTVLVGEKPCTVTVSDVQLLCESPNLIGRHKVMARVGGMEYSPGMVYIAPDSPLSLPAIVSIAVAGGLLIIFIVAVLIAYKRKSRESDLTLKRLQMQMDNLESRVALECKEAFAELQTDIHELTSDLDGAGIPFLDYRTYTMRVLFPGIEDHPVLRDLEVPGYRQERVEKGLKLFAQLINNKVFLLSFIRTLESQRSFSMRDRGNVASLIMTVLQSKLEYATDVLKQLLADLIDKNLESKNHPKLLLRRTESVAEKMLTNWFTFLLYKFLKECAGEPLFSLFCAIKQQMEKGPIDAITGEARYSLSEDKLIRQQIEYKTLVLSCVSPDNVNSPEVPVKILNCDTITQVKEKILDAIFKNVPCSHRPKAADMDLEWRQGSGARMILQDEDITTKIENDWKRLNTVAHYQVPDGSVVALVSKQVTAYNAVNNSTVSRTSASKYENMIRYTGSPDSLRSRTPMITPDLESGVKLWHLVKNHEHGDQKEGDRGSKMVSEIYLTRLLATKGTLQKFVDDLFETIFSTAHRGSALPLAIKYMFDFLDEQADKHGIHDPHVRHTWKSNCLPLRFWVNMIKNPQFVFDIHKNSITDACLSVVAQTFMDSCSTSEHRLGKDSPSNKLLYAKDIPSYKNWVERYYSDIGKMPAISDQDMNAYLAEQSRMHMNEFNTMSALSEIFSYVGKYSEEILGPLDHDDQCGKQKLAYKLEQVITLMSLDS

| binding [1] | binding [2] | Molecule |
| --- | --- | --- |
| binds | – | N-cadherin (from UniProt P15116 160-906) |
| binds | – | Plexin A4 (from UniProt Q80UG2 24-1893) (receptor) |
| – | binds | Neuronal activity-regulated pentraxin (Narp) (protein, UniProt O70340 15-429) AGRAQDSPIPGSRFVCTALPPEAARAGCPLPAMPMQGGALSPEEELRAAVLQLRETVVQQKETLGAQREAIRELTGKLARCEGLAGGKARGTGKDTMGDLPRDPGHVVEQLSRSLQTLKDRLESLELQLRTNVSNAGLPSDFREVLQRRLGELERQLLRKVAELEDEKSLLHNETSAHRQKTESTLNALLQRVTELERGNSAFKSPDAFKVSLPLRTNYLYGKIKKTLPELYAFTICLWLRSSASPGIGTPFSYAVPGQANEIVLIEWGNNPIELLINDKVAQLPLFVSDGKWHHICITWTTRDGMWEAFQDGEKLGTGENLAPWHPIKPGGVLILGQEQDTVGGRFDATQAFVGELSQFNIWDRVLRAQEIINIANCSTNMPGNIIPWVDNNVDVFGGASKWPVETCEERLLDL |
